Results reported in PubChem BioAssay AID1671190 (National Center for Advancing Translational Sciences (NCATS), 2021).
Out of some 580,000 compounds screened, about 6,100 (1.1%) were called active. This list was built around the results that the source calls inconclusive (neither active nor inactive); the mix of calls is not that of the screen. The call rests on the fitted dose curve; in most records, active means well fitted inhibition curve with a large enough effect; inconclusive means small, poorly fitted or top-dose-only effect, or another doubt; inactive means no such curve, though single readings can be large or run the other way. Where the call is inconclusive, the potency comes from a doubtful curve fit.

The chains behind the UniProt entries cited, without tags or fusion partners. Where a name states a change or a piece, a line headed by the entry shows the natural chain unless it says otherwise.
UniProt P18054: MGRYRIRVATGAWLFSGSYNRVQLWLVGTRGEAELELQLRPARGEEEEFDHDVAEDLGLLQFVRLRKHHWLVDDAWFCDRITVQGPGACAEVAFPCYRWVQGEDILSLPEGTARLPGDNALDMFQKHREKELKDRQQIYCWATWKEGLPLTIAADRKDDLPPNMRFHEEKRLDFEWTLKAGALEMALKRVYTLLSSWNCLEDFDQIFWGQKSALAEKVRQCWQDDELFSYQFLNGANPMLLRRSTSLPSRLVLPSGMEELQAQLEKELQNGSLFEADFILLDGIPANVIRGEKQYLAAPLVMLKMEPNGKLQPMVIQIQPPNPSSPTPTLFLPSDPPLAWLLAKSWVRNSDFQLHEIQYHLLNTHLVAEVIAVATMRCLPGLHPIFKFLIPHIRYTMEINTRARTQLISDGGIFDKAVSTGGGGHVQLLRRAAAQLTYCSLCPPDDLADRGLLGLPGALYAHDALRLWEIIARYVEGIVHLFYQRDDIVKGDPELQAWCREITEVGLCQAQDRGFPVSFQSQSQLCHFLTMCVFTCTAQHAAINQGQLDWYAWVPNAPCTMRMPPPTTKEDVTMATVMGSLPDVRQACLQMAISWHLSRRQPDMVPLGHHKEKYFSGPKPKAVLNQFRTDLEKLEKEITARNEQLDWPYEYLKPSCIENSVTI

molecular target: Polyunsaturated fatty acid lipoxygenase ALOX12 (Homo sapiens) (UniProt P18054); assay: Primary qHTS assay for inhibitors of human arachidonate 12S-lipoxygenase (ALOX12): Round 2; settings: purified 12hLO, xylenol orange hydroperoxide absorbance; activity change, negative = inhibition: at 108 µM (top of the series)
In short: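 Purified human 12hLO (150 nM final) in 25 mM Hepes, 0.01% Triton X-100, pH 7.0 was preincubated 15 min at room temperature with compound. Then 40 uM arachidonic acid was added, 30 min. Hydroperoxide was read by Fe-XO absorbance ratio 573/405 nm.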
On the % scale 0 is the no-effect control and ±100 the full control effect; potency means the concentration at half of the fitted maximal effect.

Compound | activity change, negative = inhibition | Potency
O=C(NC[C@H]1C[C@@H]2CCN1C[C@@H]2CN1C[C@@H]2C[C@H](C1)c1cccc(=O)n1C2)c1ccc(C(F)(F)F)cc1 | inactive: 18.4% | 
C[N+]1(CC2COC(c3ccco3)O2)CCCCC1 (stereo not drawn) |  | inconclusive: 44.7 µM [inhibitor, partial curve, poor fit]
CN1CCc2cc(O)cc3c2C1Cc1ccc(O)c(O)c1-3 (stereo not drawn) |  | inconclusive: 3.98 µM [inhibitor, full curve, poor fit]
CNC(C(=O)c1ccccc1)C(OC)c1ccccc1 (stereo not drawn) |  | inconclusive: 3.55 µM [inhibitor, full curve, poor fit]
NC(CP(=O)(O)O)C(=O)O (stereo not drawn) |  | inconclusive: 39.8 µM [inhibitor, partial curve, poor fit]
O=C(NCc1ccccc1)[C@H]1CN2CCC1C[C@@H]2Cn1cc(-c2ccc(F)cc2)nn1 (stereo partly drawn) | inactive: 11.8% [at 176 µM] | 
N#Cc1cccnc1N1CC2CCC(C1)N2CC(F)(F)F | inactive: -5.16% [at 12.5 µM] | 
CC[n+]1c(/C=C/N(C)c2ccccc2)sc2ccc(Cl)cc21 |  | inconclusive: 44.7 µM [inhibitor, partial curve]
COc1ccc(C(=O)Oc2cccc3cccnc23)cc1S(=O)(=O)N1CCOCC1 | inactive: 1.63% | 
C=CCc1cc(C=C2C(=O)N(C)C(=O)N(C)C2=O)cc(OCC)c1OCc1ccccc1 |  | inconclusive: 44.7 µM [inhibitor, partial curve, poor fit]
CCN(CC)c1ccc(C=C2C(=O)NC(=S)NC2=O)cc1 |  | inconclusive: 25.1 µM [inhibitor, single point]
CN1CCc2cc(O)cc3c2[C@H]1Cc1ccc(O)c(O)c1-3 |  | inconclusive: 12.6 µM [inhibitor, full curve]
CN[C@@H](C)Cc1ccccc1 |  | inconclusive: 100 µM [inhibitor, single point]
C=C(C)[C@H]1CN[C@H](C(=O)O)[C@@H]1CC(=O)O |  | inconclusive: 39.8 µM [inhibitor, single point]
O=C(c1ccccn1)N1C[C@@H]2C[C@H](C1)c1ccc(NS(=O)(=O)c3cccs3)c(=O)n1C2 | inactive: 2.1% | 
CCC1CCC(NC2CCC(CC)CC2)CC1 (stereo not drawn) |  | inconclusive: 112 µM [inhibitor, partial curve, poor fit]
COc1ccc(CN2C(=O)NC(=O)/C(=C/c3cc(OC)c(OC)c(OC)c3)C2=O)cc1 |  | inconclusive: 50.1 µM [inhibitor, partial curve, poor fit]
O=c1cc(C2CCNCC2)[nH][nH]1 | inactive: -4.65% | 
Cc1cccc(-n2c(-c3cccs3)nc3ccccc3c2=O)c1 |  | inconclusive: 56.2 µM [inhibitor, partial curve, poor fit]
COC(=O)C(O)(c1c[nH]c2ccccc12)C(F)(F)F (stereo not drawn) |  | inconclusive: 141 µM [inhibitor, single point]
Cc1cccc(CCN)c1 | inactive: 25.6% | 
CC(C)(C)c1o[nH]c(=O)c1C[C@H](N)C(=O)O |  | inconclusive: 1 µM [inhibitor, full curve, poor fit]
CC(=O)O[C@H]1[C@H]2O[C@]23[C@@H]2CC[C@]4(O)C[C@@H](O)CC[C@]4(C)C2CC[C@]3(C)[C@H]1c1ccc(=O)oc1 (stereo partly drawn) | inactive: 15.2% | 

Compound | activity change, negative = inhibition | Potency
O=c1ccc(-c2cccs2)c2n1C[C@H]1C[C@@H]2CN(S(=O)(=O)c2ccccc2)C1 |  | inconclusive: 39.8 µM [inhibitor, full curve]
CCOc1cc2c(cc1OCC)-n1cccc1C(c1ccccc1F)NC2 (stereo not drawn) | inactive: 0% | 
c1cncc(C2Nc3cccc4cccc(c34)N2)c1 |  | inconclusive: 35.5 µM [inhibitor, single point]
Cn1c(O)c(C(c2ccccn2)c2c(O)n(C)c(=S)n(C)c2=O)c(=O)n(C)c1=S | inactive: 9.75% | 
CC(C)N1CCOC(c2ccc(O)c(O)c2)C1 (stereo not drawn) |  | inconclusive: 31.6 µM [inhibitor, partial curve, poor fit]
CC(=O)C1CCC2C3C(N4CC4)CC4=CC(=O)CCC4(C)C3CCC12C (stereo not drawn) |  | inconclusive: 126 µM [inhibitor, partial curve, poor fit]
O=C1CSC(c2ccc(F)cc2F)c2cn[nH]c2N1 (stereo not drawn) | inactive: 12.1% | 
NC(=O)c1cc([N+](=O)[O-])cc([N+](=O)[O-])c1 |  | inactive
COC(=O)C1=C(c2cc3ccccc3s2)C[C@@H]2CC[C@H]1N2C(=O)NCc1ccc(C(F)(F)F)cc1 |  | inconclusive: 50.1 µM [inhibitor, partial curve, poor fit]
O=C(O)c1ccc(-n2c(O)c(/C=C3\C=Nc4ccccc43)c(=O)[nH]c2=O)cc1 |  | inconclusive: 17.8 µM [inhibitor, partial curve, poor fit]
Cc1ccc(N2C(=O)NC(=O)/C(=C\c3ccc(N4CCOCC4)cc3)C2=O)cc1 |  | inconclusive: 39.8 µM [inhibitor, partial curve, poor fit]
CCCCn1c(O)c(C(=O)/C=C/c2c[nH]c3ccccc23)c(=O)[nH]c1=O |  | inconclusive: 8.91 µM [inhibitor, partial curve, poor fit]
COc1ccc(-n2c(/C=C/c3ccc(O)c(O)c3)nc3ccccc3c2=O)cc1 |  | inconclusive: 4.47 µM [inhibitor, full curve, poor fit]
Cn1cc(CN2CCN3C(=O)N(Cc4ccccn4)C[C@H]3C2)cn1 | inactive: 48.2% [at 176 µM] | 
Cc1ccnc(NC(=O)CCCc2ccc(N(CCCl)CCCl)cc2)n1 |  | inconclusive: 7.94 µM [inhibitor, full curve, poor fit]
CCCN1CC2ON=C(C(=O)O)C2C1 (stereo not drawn) |  | inconclusive: 4.61 µM [inhibitor, single point]
CN1CCN(c2ccc([N+](=O)[O-])c(Sc3ccccn3)c2)CC1 | inactive: 0% | 
Cc1cc(Cl)ccc1OCCCC(=O)NCc1cccs1 | inactive: -1.34% | 
C=C[C@H]1CN2CC[C@H]1C[C@@H]2CNC(=O)C(N)=O | inactive: 18.7% [at 176 µM] | 
C#C[C@H]1CN2CC[C@H]1C[C@@H]2CNC(=O)Nc1cccc(C(F)(F)F)c1 | inactive: 10.6% [at 176 µM] | 
CC(=O)OC1C2(CC3N4C(=O)C5(CO)SSC4(CC31O)C(=O)N5C)OC(C)C(C)(C)C2=O (stereo not drawn) |  | inconclusive: 100 µM [inhibitor, partial curve, poor fit]
CNS(=O)(=O)c1ccc(-c2ccc(C=C3C(=O)NC(=O)NC3=O)o2)cc1 |  | inconclusive: 8.91 µM [inhibitor, full curve, poor fit]
CC(C)CCN1CC2(C1)C(=O)Nc1ccccc12 | inactive: 2.23% [at 12.5 µM] | 

A second format for some results above:
Cc1ccc(N2C(=O)NC(=O)/C(=C\c3ccc(N4CCOCC4)cc3)C2=O)cc1
  Potency: inconclusive: 39.8 µM [inhibitor, partial curve, poor fit]
CCCCn1c(O)c(C(=O)/C=C/c2c[nH]c3ccccc23)c(=O)[nH]c1=O
  Potency: inconclusive: 8.91 µM [inhibitor, partial curve, poor fit]

Sorted by molar mass (low to high): part of the list above
Compound | activity change, negative = inhibition | Potency
CCCN1CC2ON=C(C(=O)O)C2C1 (stereo not drawn) |  | inconclusive: 4.61 µM [inhibitor, single point]
c1cncc(C2Nc3cccc4cccc(c34)N2)c1 |  | inconclusive: 35.5 µM [inhibitor, single point]
CN1CCN(c2ccc([N+](=O)[O-])c(Sc3ccccn3)c2)CC1 | inactive: 0% | 
Cc1ccc(N2C(=O)NC(=O)/C(=C\c3ccc(N4CCOCC4)cc3)C2=O)cc1 |  | inconclusive: 39.8 µM [inhibitor, partial curve, poor fit]

Next results.

Compound | activity change, negative = inhibition | Potency
Cc1ccc(OCC(=O)N2CCN(Cc3cccnc3)CC2)cc1 | inactive: -30.7% | 
Cc1cccc(N2CCN(Cc3ccc4c(c3)OCO4)CC2)c1C |  | inconclusive: 2.24 µM [inhibitor, full curve]
Clc1ccc(-c2nc3ccc(Cl)cn3c2CN2CCCCC2)cc1 |  | inconclusive: 50.1 µM [inhibitor, partial curve, poor fit]
COC(=O)C1=C(c2ccc3ccccc3c2)C[C@@H]2CC[C@H]1N2C(=O)NC(C)C | inactive: -6.39% | 
COc1ccc(C(=O)Cn2c(NCCCl)nc3ccccc32)cc1 |  | inconclusive: 11.2 µM [inhibitor, full curve, poor fit]
C[N+]1(C)CCc2cc3c(cc2[C@H]1[C@@H]1OC(=O)c2c1ccc1c2OCO1)OCO3 |  | inconclusive: 35.5 µM [inhibitor, partial curve, poor fit]
CNC(=O)OCCc1n(C)cc[n+]1C |  | inconclusive: 50.1 µM [inhibitor, single point]
CCCCn1nnnc1C(c1ccnc2ccccc12)N1CCC2(CC1)C(=O)NCN2c1ccccc1 (stereo not drawn) |  | inconclusive: 39.8 µM [inhibitor, partial curve]
CC[C@H]1CN2CC[C@H]1C[C@@H]2CNCc1cc2ccccc2o1 | inactive: 52.2% [at 176 µM] | 
Cc1cc(=O)[nH]c(SCc2nc3ccccc3c(=O)n2-c2ccccc2C)n1 |  | inconclusive: 89.1 µM [inhibitor, partial curve, poor fit]
COc1ccc(CCNCc2ccccc2F)cc1OC |  | inconclusive: 5.62 µM [inhibitor, full curve, poor fit]
CCN1CCCCC12Cc1ccccc1CN(C(=O)Cc1ccc(OC)cc1)C2 (stereo not drawn) |  | inconclusive: 3.55 µM [inhibitor, full curve]
N#C/C(=C\c1ccc(O)cc1)C(=O)O (tested in a mixture with another compound) | inactive: -7.15% | 
COc1cc2c(cc1OC1CCCC1)NC(=O)C21CCN(c2cnccn2)CC1 |  | inconclusive: 79.4 µM [inhibitor, partial curve, poor fit]
Cn1c(O)c(C(=O)c2ccccc2Cl)c(=O)n(C)c1=O |  | inconclusive: 35.5 µM [inhibitor, partial curve, poor fit]
C#C[C@H]1CN2CC[C@H]1C[C@@H]2CNS(=O)(=O)c1ccc(C)cc1 |  | inconclusive: 25.1 µM [inhibitor, full curve]
O=C(NCCN1CCC2(CC1)C(=O)NCN2c1ccccc1)c1ccc(F)cc1 | inactive: -27.7% | 
Cc1cc(N2CCNC[C@@H]2C)ccc1N1CCN[C@H](C)C1 |  | inconclusive: 56.2 µM [inhibitor, partial curve, poor fit]
Cc1ccc(CN2CCCC(C(=O)c3cccc(C(F)(F)F)c3)C2)o1 (stereo not drawn) |  | inconclusive: 0.631 µM [inhibitor, full curve, poor fit]
CN(C)c1ccc(/C=C/[N+](=O)[O-])cc1 | inactive: 1.93% | 
O=C(O)CNC1c2ccccc2CSc2ccccc21 (stereo not drawn) |  | inconclusive: 35.5 µM [inhibitor, partial curve, poor fit]
COc1ccc(OC)c(S(=O)(=O)NC[C@H]2C[C@@H]3CCN2C[C@@H]3c2cc(-c3ccco3)nc(C)n2)c1 |  | inconclusive: 25.1 µM [inhibitor, full curve, poor fit]
